Some of the results follow. Shown are side measurements of this screen, not its main read-out; they come without a call. Most of these compounds were active or inconclusive in the main read-out, so they are no random draw.

The assay is described as follows: hepatocyte lipid droplet accumulation inhibitors, confirmation, imaging, AML12 mouse hepatocytes, single concentration, high-content (AID 463183).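 Further: cells counted after overnight compound exposure.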 The note with it: BODIPY lipid droplet imaging, measured here: cell count, cytotoxicity, at 5.2 µM, droplets induced with 100 µM oleic acid.
`O=C(NC(=S)Nc1ccccn1)c1ccc(-c2ccccc2)cc1` showed a cell count of 1610 cells.

On to `CCCCCCn1c(N2CCN(c3ccccc3)CC2)nc2c1c(=O)[nH]c(=O)n2C`, for which the cell count is 1690 cells.

`CCOc1ccc(CCNC(=O)Cn2cccc2C(=O)c2ccccc2C)cc1OCC` yielded a cell count of 1560 cells.

`Cc1ccc(-c2c(C(=O)NC(C)C)oc(=O)c3ccccc23)cc1` had a cell count of 1540 cells.

The compound `CS(=O)(=O)N(Cc1ccc(Cl)cc1)c1ccc(C(=O)N/N=C/c2cc3ccccc3nc2Cl)cc1` yielded a cell count of 1660 cells.

For `COc1cc2c3nnc(-c4ccc(F)cc4)c-3cn(Cc3cccc(C)c3)c2cc1OC`, the cell count was determined as 1660 cells.

As to `CCN(CC(=O)Nc1c(F)cccc1F)C(=O)CCCc1c[nH]c2ccccc12`, the cell count was determined as 1590 cells.

For `Cc1cc(NC(=O)c2cccc3ccccc23)cc(C)c1OCC(=O)N1CCOCC1`, the cell count stood at 1580 cells.

As to `Cc1cccc(NC(=O)[C@H](C)NC(=O)[C@@H]2Cc3ccccc3CN2C(=O)OC(C)(C)C)c1`, the cell count is 1580 cells.

`Cc1ccc(C(C(=O)NC2CCCCC2)N(C(=O)c2csnn2)C2CCCC2)o1` (centres undefined) registered a cell count of 1620 cells.

Turning to `O=c1[nH]c(=O)n(Cc2ccccc2)c2nc(-c3ccc(Oc4ccc(F)cc4)c([N+](=O)[O-])c3)n(CCO)c12`, the cell count worked out at 1560 cells.

The compound `Cc1cc(C(=O)OC(C)C(=O)Nc2nc(-c3ccccc3)cs2)c(C)o1` (centres undefined) displayed a cell count of 1690 cells.

On to `CCc1ccccc1NC(=O)c1cccc(NC(=O)/C=C/c2ccco2)c1`, for which the cell count was determined as 1370 cells.

Compound `CCCC1O[C@@H]2C[C@H]3[C@@H]4CCC5=CC(=O)C=C[C@]5(C)[C@H]4[C@@H](O)C[C@]3(C)[C@]2(C(=O)CO)O1` (some centres undefined) had a cell count of 1490 cells.

`O=C1C(NS(=O)(=O)c2ccccc2)=C(N2CCN(c3ccc(F)cc3)CC2)C(=O)c2ccccc21` gave a cell count of 1630 cells.

On to `CCOc1ccc(CCNC(=O)c2cccs2)cc1OCC`, for which the cell count came to 1550 cells.

`COc1cccc(NC(=O)CN(Cc2ccccc2)S(C)(=O)=O)c1` gave a cell count of 1620 cells.

Regarding `CCCN(CCC)c1ccc(CC(=O)NC(C)Cc2ccccc2)cc1` (centres undefined), the cell count worked out at 1560 cells.

For the compound `Cc1cccc(NC(=O)Cc2coc3ccc4ccccc4c23)n1`, the cell count turned out to be 1640 cells.

As to `CCOc1ccc2c(c1)-c1c(ssc1=S)C(C)(C)N2C`, the cell count worked out at 1640 cells.

Turning to `O=C(CCNC(=O)C1CCN(S(=O)(=O)c2ccccc2)CC1)NCCc1cccc(F)c1`, the cell count turned out to be 1640 cells.

Take `COc1cccc(CNC(=O)CCNC(=O)C2CCN(S(=O)(=O)c3ccccc3)CC2)c1`: the cell count worked out at 1630 cells.

Compound `CCOc1ccc2c(c1)-c1c(ssc1=S)C(C)(C)N2C(=O)c1ccco1` gave a cell count of 1630 cells.

Regarding `CCc1ccccc1NC(=O)C1=CC(c2cccs2)=NS(=O)(=O)N1C`, the cell count worked out at 1680 cells.

For `CCCOc1ccccc1C(=O)N(Cc1ccc(C)o1)C1CCS(=O)(=O)C1` (centres undefined), the cell count came to 1610 cells.

On to `Cc1cc(C(=O)N[C@@H](c2ccccc2)[C@]2(C)C[C@H]2[C@@H](C)C(=O)Nc2ccc3ccccc3c2)no1`, for which the cell count was found to be 1600 cells.

With `CCOc1ccc(NS(=O)(=O)c2ccc(C(=O)N3CCCCC3)cc2)cc1`, the cell count is 1630 cells.

Take `COc1cc(/C=C\C(=O)OCn2nnc3ccccc3c2=O)cc(OC)c1OC`: the cell count turned out to be 1670 cells.

Consider `CCN1CCN(c2cc(C)c3cc(NC(=O)CCC(=O)Nc4ccc(OC)cc4OC)ccc3n2)CC1`, for which the cell count was 1600 cells.

In turn, `c1ccc2nc(N3CCN(Cc4ccc5c(c4)OCO5)CC3)cnc2c1` had a cell count of 1500 cells.

`COc1ccccc1N1CCN(C(=O)CSc2nc3ccccc3nc2N2CCC(C)CC2)CC1` gave a cell count of 1630 cells.

Compound `c1cc2c(cc1-c1csc(NNC3=NCCCCC3)n1)OCCO2` displayed a cell count of 1590 cells.

In turn, `CC(C)Cn1c(N)c(C(=O)COC(=O)c2cc(C3CC3)nc3ccccc23)c(=O)n(C)c1=O` yielded a cell count of 1600 cells.

`CCOC(=O)c1ccc(NC(=O)COc2ccc(S(=O)(=O)NC(C)(C)C)cc2)cc1`: the cell count turned out to be 1630 cells.

Turning to `CCOc1cc2c(cc1OCC)C(c1ccccc1)N(c1ccccc1)C(=O)C2` (centres undefined), the cell count turned out to be 1650 cells.

`CCC(C)(C)NC(=O)C(c1ccc(OC)cc1)N(Cc1ccccc1)C(=O)CCC(=O)Nc1cc(C)on1` (centres undefined) registered a cell count of 1630 cells.

Take `CCc1c(C#N)c(SCCC(=O)Nc2ccc(OC)cc2)nc2c1C(=O)CC(C)(C)C2`: the cell count came to 1540 cells.

Turning to `CCOc1ccc(CCNC(=O)CCOc2cc(C)ccc2C)cc1OCC`, the cell count came out at 1560 cells.

In turn, `Cn1c(=O)c(C(=O)COC(=O)c2cc(C3CC3)nc3ccccc23)c(N)n(Cc2ccccc2)c1=O` showed a cell count of 1670 cells.

The values above are taken from PubChem BioAssay AID463183 (Sanford-Burnham Center for Chemical Genomics, 2010).
